Measured values from publication PMC3804511.
Results are given in words; binding and its absence hold for the method and conditions named. Binding seen in cells or lysates may run through a third protein. Binding calls can cover weak binding; strength is not graded here. Where a sequence is shown, tags or fusion partners need not be part of it.

The chains behind the UniProt entries cited, without tags or fusion partners. Where a name states a change or a piece, a line headed by the entry shows the natural chain unless it says otherwise.
UniProt P38692: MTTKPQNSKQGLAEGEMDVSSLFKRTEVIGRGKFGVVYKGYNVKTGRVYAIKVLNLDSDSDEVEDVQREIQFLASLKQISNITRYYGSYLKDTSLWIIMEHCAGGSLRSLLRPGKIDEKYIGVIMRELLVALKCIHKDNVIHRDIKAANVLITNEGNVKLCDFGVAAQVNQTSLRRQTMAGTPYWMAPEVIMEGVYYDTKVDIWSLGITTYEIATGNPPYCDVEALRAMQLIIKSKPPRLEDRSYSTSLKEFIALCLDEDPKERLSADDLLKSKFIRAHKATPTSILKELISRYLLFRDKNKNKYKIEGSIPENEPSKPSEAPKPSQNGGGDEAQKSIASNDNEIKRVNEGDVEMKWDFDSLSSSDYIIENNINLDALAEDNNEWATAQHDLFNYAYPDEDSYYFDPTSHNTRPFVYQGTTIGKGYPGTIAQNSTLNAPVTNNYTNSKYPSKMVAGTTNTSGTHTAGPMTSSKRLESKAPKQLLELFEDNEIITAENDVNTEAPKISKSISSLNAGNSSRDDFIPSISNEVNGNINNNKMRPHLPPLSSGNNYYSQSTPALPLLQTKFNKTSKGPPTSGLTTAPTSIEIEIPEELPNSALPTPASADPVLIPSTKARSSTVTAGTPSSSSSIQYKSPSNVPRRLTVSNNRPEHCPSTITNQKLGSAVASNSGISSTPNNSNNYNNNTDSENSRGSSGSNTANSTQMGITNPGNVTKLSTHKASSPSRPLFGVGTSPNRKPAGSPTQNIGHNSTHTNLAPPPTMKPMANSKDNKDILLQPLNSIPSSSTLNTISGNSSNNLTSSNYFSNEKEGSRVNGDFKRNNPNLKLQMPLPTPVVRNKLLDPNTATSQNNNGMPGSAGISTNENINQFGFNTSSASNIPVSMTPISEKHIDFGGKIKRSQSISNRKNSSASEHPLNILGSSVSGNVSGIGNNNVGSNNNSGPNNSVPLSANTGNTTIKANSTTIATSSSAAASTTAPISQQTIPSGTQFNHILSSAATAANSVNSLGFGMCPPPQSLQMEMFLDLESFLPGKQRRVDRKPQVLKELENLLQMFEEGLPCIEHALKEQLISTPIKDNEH

Biological target: T1, Hym1-13myc (S. cerevisiae) (UniProt P32464)
T1 sequence: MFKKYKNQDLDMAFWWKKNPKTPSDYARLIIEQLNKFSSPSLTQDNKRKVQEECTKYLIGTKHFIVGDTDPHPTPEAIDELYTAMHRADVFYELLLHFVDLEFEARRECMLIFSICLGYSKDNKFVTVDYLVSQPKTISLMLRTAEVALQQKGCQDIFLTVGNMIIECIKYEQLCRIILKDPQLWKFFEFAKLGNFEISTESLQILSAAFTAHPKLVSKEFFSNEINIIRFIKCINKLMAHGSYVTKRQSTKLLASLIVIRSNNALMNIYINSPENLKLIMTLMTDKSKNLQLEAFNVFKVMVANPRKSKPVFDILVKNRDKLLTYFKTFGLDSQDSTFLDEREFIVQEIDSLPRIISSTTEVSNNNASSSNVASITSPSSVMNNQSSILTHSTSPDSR
Assay: co-IP; yeast cell lysates (bead beating) of strains with both tagged proteins; Hym1-myc immunoprecipitated with anti-c-Myc 9E10 on Dynabeads Protein G, Kic1-HA detected by anti-HA blot; also at 10 min intervals after release from GAL-CDC20 arrest

With “HA-tagged catalytically inactive Kic1 allele (kic1-DEAD) (from UniProt P38692) (enzyme)” the binding was “binds”.
